The record followed here is PMC7819943, “Rice protein-binding microarrays: a tool to detect cis-acting elements near promoter regions in rice”.

Amino acid sequences for entries named in this document (tags omitted).
UniProt Q0JBA9, entry or part of it: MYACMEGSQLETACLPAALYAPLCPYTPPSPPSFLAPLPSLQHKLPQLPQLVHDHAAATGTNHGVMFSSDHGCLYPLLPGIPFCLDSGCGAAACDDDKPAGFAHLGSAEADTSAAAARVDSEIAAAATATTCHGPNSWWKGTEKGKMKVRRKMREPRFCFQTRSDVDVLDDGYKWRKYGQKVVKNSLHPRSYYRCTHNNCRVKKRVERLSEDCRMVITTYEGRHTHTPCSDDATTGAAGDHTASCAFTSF

This is one part of the list.

The test addresses OsWRKY34 (Oryza sativa, UniProt Q0JBA9 1-250). The experiment in a line: protein-binding microarray (RPBM); PBS, 2% BSA, 51.3 ng/ul salmon testes DNA, 50 uM zinc acetate, 200 nM TF, 25 C, 1 h; high values mean tight binding. The conditions noted are these: protein: recombinant; tags: N-terminal polyhistidine and DsRed monomer fusion (pET32a); label: CyDye5-dUTP incorporated in the synthesized complementary strand; 3' TTTTT single-stranded linker to array surface; dsDNA, one strand shown. An outline of the steps: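 The binding signal is fluorescence intensity per feature, in arbitrary units, read on an Axon 4000B scanner. Polyhistidine- and DsRed-tagged transcription factors (N-terminal fusions) from E. coli BL21-CodonPlus were purified on Ni–NTA and applied at 200 nM for 1 h at 25 °C to a double-stranded, BSA-blocked custom Agilent array in buffer with 50 µM zinc acetate.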
For “TTAGACTTCTCGTCTCTCTTTGTGCTTGTGCTTAGTTGTCCGGAGTCACCTAGTGCAG”, the binding signal was 8160 fluorescence intensity (a.u.).

In the case of “CTCGTCGTCGCCTCCGCTCCTTGCGCCATCTCGCGGCGCCCGGAGTCACCTAGTGCAG”, the binding signal is 9480 fluorescence intensity (a.u.).

“TACAAACCTCAAGAAGCTCAGTGTCGCATCAGTTTGACTGCGGAGTCACCTAGTGCAG”: the binding signal was 8440 fluorescence intensity (a.u.).

For “AAGTATATTATGTACCTTTTCTGGTATCCTTCCCTTTGAACGGAGTCACCTAGTGCAG”, the binding signal is 8600 fluorescence intensity (a.u.).

Consider “TTTGGTTTGGTTTGGTTTGATCCCGAGGAGGAGGAGGAGGCGGAGTCACCTAGTGCAG”, for which the binding signal is 10600 fluorescence intensity (a.u.).

In the case of “CATTTAATCTCCTCGTTACCGCTCAATTAACGCACCGATTCGGAGTCACCTAGTGCAG”, the binding signal was 8880 fluorescence intensity (a.u.).

In the case of “CCTTTGTGTCATCGGTCATGCTGCTAATCCATTATATAATCGGAGTCACCTAGTGCAG”, the binding signal was 8360 fluorescence intensity (a.u.).

“GAGATTTGGGATTGGTATGGGCCAGGTGTGATCTAACTTACGGAGTCACCTAGTGCAG”: the binding signal is 8100 fluorescence intensity (a.u.).

As to “GCCCGCACCCGCACCACCGCCCACCACCACCACGCCACGGCGGAGTCACCTAGTGCAG”, the binding signal was 10600 fluorescence intensity (a.u.).

In the case of “CACGTGGTTTTCTTTTTTTAGCACCACATTACTTTCCTATCGGAGTCACCTAGTGCAG”, the binding signal was 9090 fluorescence intensity (a.u.).

For the sequence “TATATTTCCAAAGGTTTGACTTTCTTTACGAGTACGGAGACGGAGTCACCTAGTGCAG”, the binding signal was 10500 fluorescence intensity (a.u.).

As for “TTTATGATCCTTGCAATTTCTGCCATTCCATCTTAGAATTCGGAGTCACCTAGTGCAG”, the binding signal was 10100 fluorescence intensity (a.u.).

Regarding “CGAACAAGCTGATTAACATGCATGATTTCCTAGTATTTCCCGGAGTCACCTAGTGCAG”, the binding signal is 9920 fluorescence intensity (a.u.).

For the sequence “GAGTAACTTTTAATCCGAGCCATTTATGCACTTCAATTTTCGGAGTCACCTAGTGCAG”, the binding signal is 10000 fluorescence intensity (a.u.).

With “CTCGCTCGCTCGCGCACACACCACCCAACGGATTAACATGCGGAGTCACCTAGTGCAG”, the binding signal is 8290 fluorescence intensity (a.u.).

With “AATTTCCAGTCCCTACATATTTCCTTTTTTTTCCTGCACTCGGAGTCACCTAGTGCAG”, the binding signal is 10700 fluorescence intensity (a.u.).

As for “TGCCCTAGTATTTGTTTCATGAGTTGTGTCTTAATCAACACGGAGTCACCTAGTGCAG”, the binding signal is 9620 fluorescence intensity (a.u.).

As to “CAAGTCAACCCGCACAGATCTCATGCCAGATGCCACCACGCGGAGTCACCTAGTGCAG”, the binding signal is 8080 fluorescence intensity (a.u.).

Consider “GGTCGCTTTCCTGGCCCATTGTTGCGCCCGTCTTTGTCTCCGGAGTCACCTAGTGCAG”, for which the binding signal was 9050 fluorescence intensity (a.u.).

“CCCCGCGCAGCGCAGACCATGGATGTGTACCTCGTTGTTCCGGAGTCACCTAGTGCAG”: the binding signal was 9410 fluorescence intensity (a.u.).

Regarding “CTGGTCGTCGCTGCTCCGCGTGCCGGTCGGGGTGGGTGGGCGGAGTCACCTAGTGCAG”, the binding signal was 20100 fluorescence intensity (a.u.).

Turning to “TACCGCTGTTCTTTTTGTCGAGTTTTTTTGCAAGACTGAACGGAGTCACCTAGTGCAG”, the binding signal was 8990 fluorescence intensity (a.u.).

“ATTTGTCCCTCCTTCACTTTCCTACTGGCTACTGCGTGATCGGAGTCACCTAGTGCAG”: the binding signal was 8960 fluorescence intensity (a.u.).
